Laboratory results published in the supplement of paper PMC4604168 (melanoma cell lines).
Some of the results follow. Single values are uncertain, as repeats are few or missing.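 Cells were imaged in 1,536-well plates, and nuclei stained with an antibody against cleaved PARP were counted against all DNA-stained nuclei to give the apoptosis fraction. Screening doses were chosen to leave most cells alive, and resting and induced cleaved-PARP levels differ strongly between cell lines.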

Test system: COLO792
Experiment: cleaved PARP positive nuclei fraction relative to DMSO control; melanoma cells; higher = more apoptosis
Settings: library dose: low library concentration; 72 h

Point of comparison: `CC[C@]1(O)C[C@H]2CN(CCc3c([nH]c4ccccc34)[C@@](C(=O)OC)(c3cc4c(cc3OC)N(C=O)[C@H]3[C@@](O)(C(=O)OC)[C@H](OC(C)=O)[C@]5(CC)C=CCN6CC[C@]43[C@@H]65)C2)C1` [vincristine] + Cn1c(=O)n(-c2ccc(C(C)(C)C#N)cc2)c2c3cc(-c4cnc5ccccc5c4)ccc3ncc21 [NVP-BEZ235] (first compound 0.0001 µM, partner dose 0.004 µM), “cleaved PARP positive nuclei fraction” value 97.5%. Against it:
- COc1cc([C@@H]2c3cc4c(cc3[C@@H](O[C@@H]3O[C@@H]5CO[C@@H](C)O[C@H]5[C@H](O)[C@H]3O)[C@H]3COC(=O)[C@H]23)OCO4)cc(OC)c1O [etoposide] + CCCS(=O)(=O)Nc1ccc(F)c(C(=O)c2c[nH]c3ncc(Cl)cc23)c1F [PLX4720] (first compound 0.02 µM, partner dose 0.08 µM) — higher, 140%
- COc1cc([C@@H]2c3cc4c(cc3[C@@H](O[C@@H]3O[C@@H]5CO[C@@H](C)O[C@H]5[C@H](O)[C@H]3O)[C@H]3COC(=O)[C@H]23)OCO4)cc(OC)c1O [etoposide] + CN(c1ncccc1CNc1nc(Nc2ccc3c(c2)CC(=O)N3)ncc1C(F)(F)F)S(C)(=O)=O [PF562271] (first compound 0.02 µM, partner dose 0.08 µM) — higher, 129%
- Cc1cc(Nc2cc(N3CCN(C)CC3)nc(Sc3ccc(NC(=O)C4CC4)cc3)n2)n[nH]1 [Tozasertib] + Cc1cc(Nc2cc(N3CCN(C)CC3)nc(/C=C/c3ccccc3)n2)n[nH]1 [ENMD2076] (first compound 0.006 µM, partner dose 0.04 µM) — lower, 68%
